# ± gives the standard deviation of the averaged measurements. The entries are a selection whose mix differs from that of the whole data set. Most values lie at the level of the controls, where differences are scatter.
# Chains of the proteins cited; added tags and fusions are not shown. Lines headed by an entry give the natural chain unless they say otherwise; changes in a name come on top.
# UniProt Q01658: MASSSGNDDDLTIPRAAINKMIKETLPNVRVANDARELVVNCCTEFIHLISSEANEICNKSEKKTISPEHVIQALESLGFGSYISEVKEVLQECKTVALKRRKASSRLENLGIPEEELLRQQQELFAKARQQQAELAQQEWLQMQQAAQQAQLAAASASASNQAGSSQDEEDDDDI
# UniProt P61086: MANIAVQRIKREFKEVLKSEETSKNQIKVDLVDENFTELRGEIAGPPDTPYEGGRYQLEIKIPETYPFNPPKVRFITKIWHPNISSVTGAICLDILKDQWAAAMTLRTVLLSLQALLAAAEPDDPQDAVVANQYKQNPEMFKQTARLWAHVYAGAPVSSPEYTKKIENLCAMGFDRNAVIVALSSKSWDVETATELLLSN
# UniProt P62316, whole entry: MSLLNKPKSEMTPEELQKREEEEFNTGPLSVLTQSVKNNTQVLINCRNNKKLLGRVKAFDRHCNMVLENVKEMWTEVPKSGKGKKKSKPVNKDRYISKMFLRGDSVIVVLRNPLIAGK
# UniProt Q03111: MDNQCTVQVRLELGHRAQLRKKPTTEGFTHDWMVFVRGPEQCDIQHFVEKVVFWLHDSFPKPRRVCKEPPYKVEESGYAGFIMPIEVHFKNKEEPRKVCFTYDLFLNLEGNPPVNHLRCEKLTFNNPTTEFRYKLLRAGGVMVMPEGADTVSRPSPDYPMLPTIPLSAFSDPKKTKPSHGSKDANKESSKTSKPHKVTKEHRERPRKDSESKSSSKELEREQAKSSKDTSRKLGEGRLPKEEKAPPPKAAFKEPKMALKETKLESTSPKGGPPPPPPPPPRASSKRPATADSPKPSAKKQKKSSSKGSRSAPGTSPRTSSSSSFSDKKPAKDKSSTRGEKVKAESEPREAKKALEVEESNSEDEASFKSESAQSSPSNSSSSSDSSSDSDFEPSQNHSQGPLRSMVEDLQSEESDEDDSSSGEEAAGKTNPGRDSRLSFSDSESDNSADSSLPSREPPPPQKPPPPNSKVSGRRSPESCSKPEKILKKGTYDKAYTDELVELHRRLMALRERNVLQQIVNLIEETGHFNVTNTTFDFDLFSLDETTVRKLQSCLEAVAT
# UniProt P61163, whole entry: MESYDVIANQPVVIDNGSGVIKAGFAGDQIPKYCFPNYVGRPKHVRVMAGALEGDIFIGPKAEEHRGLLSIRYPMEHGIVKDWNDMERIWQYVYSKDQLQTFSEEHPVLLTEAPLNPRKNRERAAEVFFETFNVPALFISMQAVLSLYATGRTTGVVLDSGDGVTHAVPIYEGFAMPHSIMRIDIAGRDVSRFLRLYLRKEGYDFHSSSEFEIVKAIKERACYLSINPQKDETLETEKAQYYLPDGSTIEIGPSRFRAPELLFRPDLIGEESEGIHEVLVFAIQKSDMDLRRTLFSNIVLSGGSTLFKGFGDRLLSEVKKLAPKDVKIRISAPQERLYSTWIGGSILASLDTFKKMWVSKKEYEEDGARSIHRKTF
# UniProt Q02252: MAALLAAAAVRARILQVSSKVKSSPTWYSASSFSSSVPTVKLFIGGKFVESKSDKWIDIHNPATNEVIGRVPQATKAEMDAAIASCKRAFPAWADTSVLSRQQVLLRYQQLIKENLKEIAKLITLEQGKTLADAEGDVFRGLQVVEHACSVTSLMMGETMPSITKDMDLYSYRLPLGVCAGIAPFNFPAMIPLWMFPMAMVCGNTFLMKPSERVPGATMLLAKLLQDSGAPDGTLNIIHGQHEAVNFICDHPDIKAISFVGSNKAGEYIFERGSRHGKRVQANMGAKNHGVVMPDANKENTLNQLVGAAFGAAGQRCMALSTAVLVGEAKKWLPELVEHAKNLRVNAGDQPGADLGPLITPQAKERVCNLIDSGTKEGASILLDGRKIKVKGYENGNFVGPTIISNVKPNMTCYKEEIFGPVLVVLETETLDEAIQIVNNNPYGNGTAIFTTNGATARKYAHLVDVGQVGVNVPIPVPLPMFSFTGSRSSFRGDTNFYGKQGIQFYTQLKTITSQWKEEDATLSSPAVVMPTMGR
# UniProt P78406: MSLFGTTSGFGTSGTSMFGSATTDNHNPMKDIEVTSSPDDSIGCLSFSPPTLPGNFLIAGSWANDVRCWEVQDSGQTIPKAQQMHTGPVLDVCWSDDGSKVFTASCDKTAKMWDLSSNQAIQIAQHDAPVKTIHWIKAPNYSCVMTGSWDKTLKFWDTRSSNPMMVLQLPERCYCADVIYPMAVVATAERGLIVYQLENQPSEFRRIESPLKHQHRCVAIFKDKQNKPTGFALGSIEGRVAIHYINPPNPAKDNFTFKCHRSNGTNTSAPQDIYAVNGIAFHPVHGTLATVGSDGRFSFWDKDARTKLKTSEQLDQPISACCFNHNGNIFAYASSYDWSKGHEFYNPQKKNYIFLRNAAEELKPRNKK
# UniProt P61019: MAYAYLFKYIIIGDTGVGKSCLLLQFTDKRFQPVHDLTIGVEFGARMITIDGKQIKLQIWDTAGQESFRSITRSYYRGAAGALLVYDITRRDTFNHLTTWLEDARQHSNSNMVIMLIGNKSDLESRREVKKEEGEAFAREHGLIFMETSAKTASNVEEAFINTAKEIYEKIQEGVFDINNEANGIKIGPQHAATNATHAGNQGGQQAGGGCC
# UniProt P98179: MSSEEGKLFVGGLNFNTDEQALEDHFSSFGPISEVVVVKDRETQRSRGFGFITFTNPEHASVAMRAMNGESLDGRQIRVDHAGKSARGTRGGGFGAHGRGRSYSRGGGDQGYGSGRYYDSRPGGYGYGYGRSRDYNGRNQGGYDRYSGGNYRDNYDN
# UniProt Q06210: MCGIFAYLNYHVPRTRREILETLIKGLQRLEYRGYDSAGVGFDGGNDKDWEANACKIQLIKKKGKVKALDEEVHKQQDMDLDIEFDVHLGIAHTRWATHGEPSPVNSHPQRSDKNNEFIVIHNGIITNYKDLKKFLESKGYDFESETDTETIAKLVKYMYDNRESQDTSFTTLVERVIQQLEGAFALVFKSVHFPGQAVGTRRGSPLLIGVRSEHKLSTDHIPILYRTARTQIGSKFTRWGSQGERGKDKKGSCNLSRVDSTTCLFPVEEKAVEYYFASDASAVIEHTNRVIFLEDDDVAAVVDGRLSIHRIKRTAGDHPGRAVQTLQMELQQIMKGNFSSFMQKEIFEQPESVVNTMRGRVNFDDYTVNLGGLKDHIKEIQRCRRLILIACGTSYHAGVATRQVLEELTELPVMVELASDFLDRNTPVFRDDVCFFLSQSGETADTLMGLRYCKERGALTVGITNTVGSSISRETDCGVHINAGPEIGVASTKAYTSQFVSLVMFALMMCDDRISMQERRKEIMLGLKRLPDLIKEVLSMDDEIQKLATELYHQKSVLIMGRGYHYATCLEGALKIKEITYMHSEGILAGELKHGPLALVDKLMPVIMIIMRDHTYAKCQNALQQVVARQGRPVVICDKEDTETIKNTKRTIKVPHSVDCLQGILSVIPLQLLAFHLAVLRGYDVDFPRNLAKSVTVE
# UniProt P56385: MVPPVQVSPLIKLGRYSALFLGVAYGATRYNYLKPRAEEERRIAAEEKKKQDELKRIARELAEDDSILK
# UniProt P62380: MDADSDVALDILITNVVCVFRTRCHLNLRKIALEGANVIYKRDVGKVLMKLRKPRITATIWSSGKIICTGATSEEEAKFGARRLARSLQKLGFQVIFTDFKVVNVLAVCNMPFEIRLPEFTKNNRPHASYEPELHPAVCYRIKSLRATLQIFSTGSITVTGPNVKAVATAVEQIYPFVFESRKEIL
# UniProt Q07065: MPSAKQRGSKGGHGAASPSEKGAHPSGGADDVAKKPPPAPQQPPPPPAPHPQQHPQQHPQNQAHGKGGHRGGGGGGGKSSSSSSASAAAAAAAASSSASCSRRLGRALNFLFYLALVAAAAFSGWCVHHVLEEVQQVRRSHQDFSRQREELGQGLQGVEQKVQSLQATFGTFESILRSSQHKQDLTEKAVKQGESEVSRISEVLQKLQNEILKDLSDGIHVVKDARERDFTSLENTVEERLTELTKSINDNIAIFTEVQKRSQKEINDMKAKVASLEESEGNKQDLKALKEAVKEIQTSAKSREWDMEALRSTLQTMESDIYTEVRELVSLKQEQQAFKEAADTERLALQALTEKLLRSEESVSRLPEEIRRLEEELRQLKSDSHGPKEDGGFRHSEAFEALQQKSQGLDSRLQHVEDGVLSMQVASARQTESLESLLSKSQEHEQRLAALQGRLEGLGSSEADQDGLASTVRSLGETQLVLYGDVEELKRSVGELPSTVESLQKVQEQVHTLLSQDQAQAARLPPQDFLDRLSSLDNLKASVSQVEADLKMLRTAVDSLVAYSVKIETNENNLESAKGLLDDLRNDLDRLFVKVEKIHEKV
# UniProt P61026: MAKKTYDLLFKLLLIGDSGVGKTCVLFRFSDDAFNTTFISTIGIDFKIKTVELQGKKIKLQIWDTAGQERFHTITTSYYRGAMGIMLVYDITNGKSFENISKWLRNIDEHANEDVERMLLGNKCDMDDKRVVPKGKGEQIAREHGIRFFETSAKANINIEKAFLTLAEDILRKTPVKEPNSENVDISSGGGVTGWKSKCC
# UniProt P62993, whole entry, looked up: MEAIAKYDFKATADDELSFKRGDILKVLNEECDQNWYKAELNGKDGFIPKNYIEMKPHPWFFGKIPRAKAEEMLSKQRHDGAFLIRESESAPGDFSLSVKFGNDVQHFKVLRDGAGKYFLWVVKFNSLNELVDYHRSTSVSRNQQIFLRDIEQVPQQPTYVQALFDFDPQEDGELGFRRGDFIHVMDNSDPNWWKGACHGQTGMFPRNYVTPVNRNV
# UniProt P82970: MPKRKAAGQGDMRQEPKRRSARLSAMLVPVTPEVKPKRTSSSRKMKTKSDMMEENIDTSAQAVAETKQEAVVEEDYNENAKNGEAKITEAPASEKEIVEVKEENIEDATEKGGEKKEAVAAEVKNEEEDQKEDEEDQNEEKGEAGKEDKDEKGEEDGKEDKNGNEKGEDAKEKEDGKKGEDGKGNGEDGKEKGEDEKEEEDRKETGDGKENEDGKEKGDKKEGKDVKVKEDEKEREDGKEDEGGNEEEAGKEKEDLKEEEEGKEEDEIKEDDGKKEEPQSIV
# UniProt P55957: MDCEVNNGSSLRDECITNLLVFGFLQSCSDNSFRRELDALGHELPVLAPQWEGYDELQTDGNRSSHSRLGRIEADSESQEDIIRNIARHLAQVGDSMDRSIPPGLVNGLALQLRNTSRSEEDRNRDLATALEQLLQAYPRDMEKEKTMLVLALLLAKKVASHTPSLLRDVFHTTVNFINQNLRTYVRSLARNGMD
# UniProt Q00536: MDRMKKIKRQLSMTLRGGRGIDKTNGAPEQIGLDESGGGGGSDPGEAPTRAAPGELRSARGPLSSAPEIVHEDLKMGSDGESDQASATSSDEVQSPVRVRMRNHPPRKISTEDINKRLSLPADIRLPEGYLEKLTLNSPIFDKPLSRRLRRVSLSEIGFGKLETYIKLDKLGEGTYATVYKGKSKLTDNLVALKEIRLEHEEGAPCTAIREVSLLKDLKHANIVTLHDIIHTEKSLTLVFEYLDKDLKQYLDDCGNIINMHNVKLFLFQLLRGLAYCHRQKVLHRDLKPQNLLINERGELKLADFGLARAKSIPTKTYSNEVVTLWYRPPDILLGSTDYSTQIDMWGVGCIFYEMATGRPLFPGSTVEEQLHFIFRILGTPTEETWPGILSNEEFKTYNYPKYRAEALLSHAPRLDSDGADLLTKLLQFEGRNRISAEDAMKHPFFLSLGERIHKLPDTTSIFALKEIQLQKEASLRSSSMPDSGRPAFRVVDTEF
# UniProt Q05048: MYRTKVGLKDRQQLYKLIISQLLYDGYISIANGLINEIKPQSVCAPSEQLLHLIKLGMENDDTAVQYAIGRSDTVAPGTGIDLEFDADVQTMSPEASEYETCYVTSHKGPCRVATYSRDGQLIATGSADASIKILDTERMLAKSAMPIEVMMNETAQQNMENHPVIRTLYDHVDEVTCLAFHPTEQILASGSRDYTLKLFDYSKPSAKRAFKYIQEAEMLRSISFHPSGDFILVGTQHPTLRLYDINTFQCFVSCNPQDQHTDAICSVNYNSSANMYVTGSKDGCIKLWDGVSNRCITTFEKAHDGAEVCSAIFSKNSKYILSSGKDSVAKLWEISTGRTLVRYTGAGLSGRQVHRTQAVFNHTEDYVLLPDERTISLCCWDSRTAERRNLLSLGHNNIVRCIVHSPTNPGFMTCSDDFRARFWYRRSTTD
# UniProt P60520, whole entry: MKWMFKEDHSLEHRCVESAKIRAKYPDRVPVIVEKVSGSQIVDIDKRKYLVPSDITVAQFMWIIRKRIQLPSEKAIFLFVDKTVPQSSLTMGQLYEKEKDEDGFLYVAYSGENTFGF
# UniProt P67936, whole entry: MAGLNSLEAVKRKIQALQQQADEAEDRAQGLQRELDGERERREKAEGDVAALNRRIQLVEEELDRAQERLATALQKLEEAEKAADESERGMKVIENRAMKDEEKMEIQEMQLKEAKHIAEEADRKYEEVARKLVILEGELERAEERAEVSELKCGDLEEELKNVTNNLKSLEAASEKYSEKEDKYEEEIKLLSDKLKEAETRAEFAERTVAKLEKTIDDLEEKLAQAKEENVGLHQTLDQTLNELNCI
# UniProt P56377: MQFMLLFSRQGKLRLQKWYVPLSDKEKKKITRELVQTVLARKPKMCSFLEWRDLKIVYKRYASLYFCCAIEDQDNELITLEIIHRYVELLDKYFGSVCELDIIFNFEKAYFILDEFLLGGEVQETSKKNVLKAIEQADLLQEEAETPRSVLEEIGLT
# Compound: Nc1ncnc2c1ncn2[C@@H]1O[C@H](COP(=O)(O)OP(=O)(O)NP(=O)(O)O)[C@@H](O)[C@H]1O [adenylyl imidodiphosphate]
# Test: NP40-soluble protein abundance relative to vehicle (solubility fold change) (ratio); higher = more soluble protein in presence of AMP-PNP
# Procedure, shortened: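 Jurkat crude lysate (Dounce-homogenised) was treated with eight concentrations from 0.1 to 10 mM for 10 min at room temperature, then 3 min at 37 °C. It was solubilised with 0.8% NP40 and benzonase (60 min, 4 °C) and ultracentrifuged, and the supernatant was TMT-labelled for LC-MS/MS. Intensities were vsn-normalised, and the value is the fold change against the NP40-processed vehicle per replicate, from three independent experiments.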
Target,NP40-soluble protein abundance (concentration: 0.1mM),NP40-soluble protein abundance (concentration: 0.5mM)
UniProt Q00653 and related entries,1.01 ± 0.0085,0.988 ± 0.057
OGDH (UniProt Q02218),1.019 ± 0.01,1.01 ± 0.059
SRP54 (UniProt P61011),1.02 ± 0.032,1 ± 0.024
UniProt Q00839 and related entries,1.03 ± 0.1,1.05 ± 0.099
RPS3A (UniProt P61247),1.02 ± 0.012,0.9987 ± 0.009
P62158 (UniProt P0DP23),1.05 ± 0.048,1.21 ± 0.14
UniProt P62750,1.04 ± 0.016,1.01 ± 0.012
DR1 (UniProt Q01658),1.01 ± 0.13,1.01 ± 0.13
UniProt P61086 and related entries,0.988 ± 0.038,0.973 ± 0.041
CCT2 (UniProt P78371),1.01 ± 0.011,0.992 ± 0.014
FOXK1 (UniProt P85037),0.991 ± 0.035,0.999 ± 0.07
UniProt P62316,1 ± 0.038,1.07 ± 0.097
UniProt P62854,1.03 ± 0.043,1.03 ± 0.038
UniProt Q04727 and related entries,0.972 ± 0.016,0.988 ± 0.071
MLLT1 (UniProt Q03111),0.999 ± 0.024,1.02 ± 0.04
CTDSPL2 (UniProt Q05D32),0.985 ± 0.019,1.01 ± 0.019
UniProt P61163,1.04 ± 0.013,1 ± 0.083
GMFB (UniProt P60983),1.009 ± 0.01,1.02 ± 0.082
ALDH6A1 (UniProt Q02252),0.9951 ± 0.0046,0.985 ± 0.028
UniProt P78406 and related entries,1.02 ± 0.032,1.02 ± 0.018
RAB2A (UniProt P61019),1.03 ± 0.018,1.03 ± 0.031
UniProt P61970,0.99 ± 0.023,1.01 ± 0.041

Target,NP40-soluble protein abundance (concentration: 0.1mM),NP40-soluble protein abundance (concentration: 0.5mM)
UniProt P62256,0.984 ± 0.072,1.02 ± 0.059
UniProt P61024 and related entries,0.986 ± 0.031,1 ± 0.046
RBM3 (UniProt P98179),0.983 ± 0.068,0.971 ± 0.058
FLI1 (UniProt Q01543),0.991 ± 0.016,1.02 ± 0.05
UniProt Q04864-2|Q04864,0.981 ± 0.028,0.99 ± 0.011
UniProt Q06210 and related entries,1.02 ± 0.027,1.01 ± 0.081
UniProt Q05932 and related entries,1.017 ± 0.0086,1.01 ± 0.025
UniProt P62917,1.06 ± 0.043,1.06 ± 0.011
UniProt P62280,1.02 ± 0.063,1.02 ± 0.082
MPP1 (UniProt Q00013),1.01 ± 0.011,0.993 ± 0.04
UniProt P55789 and related entries,1.05 ± 0.088,1.01 ± 0.12
MRPS9 (UniProt P82933),1.02 ± 0.062,1.02 ± 0.074
UniProt P56270-2,0.976 ± 0.028,1.02 ± 0.021
UniProt P56385,0.846 ± 0.072,0.989 ± 0.059
TBPL1 (UniProt P62380),1.01 ± 0.017,0.991 ± 0.053
UniProt Q06124-2,0.9743 ± 0.0074,0.981 ± 0.0074
YWHAH (UniProt Q04917),0.986 ± 0.022,1.03 ± 0.064
CKAP4 (UniProt Q07065),0.971 ± 0.017,0.998 ± 0.05
UniProt P61026,0.948 ± 0.047,0.988 ± 0.017
RING1 (UniProt Q06587),1.01 ± 0.065,1.04 ± 0.057
UniProt Q00722 and related entries,0.998 ± 0.035,0.989 ± 0.036
SPAG1 (UniProt Q07617),0.991 ± 0.03,0.984 ± 0.043

Target,NP40-soluble protein abundance (concentration: 0.1mM),NP40-soluble protein abundance (concentration: 0.5mM)
GRB2 (UniProt P62993),0.99 ± 0.053,0.994 ± 0.05
UniProt P84103 and related entries,1.01 ± 0.02,1.03 ± 0.054
RNASEL (UniProt Q05823),1.03 ± 0.034,1.05 ± 0.038
UniProt P98155 and related entries,1.16 ± 0.11,0.998 ± 0.02
UniProt P82970,0.893 ± 0.016,0.951 ± 0.06
TMEM33 (UniProt P57088),1.01 ± 0.06,1 ± 0.038
UniProt P55957 and related entries,1.02 ± 0.068,1.06 ± 0.073
UniProt Q00536 and related entries,0.926 ± 0.04,0.95 ± 0.036
CSTF1 (UniProt Q05048),1.01 ± 0.009,0.989 ± 0.017
UniProt P62249,1.06 ± 0.034,1.04 ± 0.044
S100A10 (UniProt P60903),1.03 ± 0.06,1.03 ± 0.14
UniProt P60520,0.979 ± 0.034,1.02 ± 0.021
TPM4 (UniProt P67936),1.07 ± 0.073,1.31 ± 0.17
MRPS36 (UniProt P82909),1 ± 0.048,1.05 ± 0.02
UniProt Q01804 and related entries,0.989 ± 0.049,0.99 ± 0.025
UniProt Q01085-2,0.998 ± 0.061,0.97 ± 0.03
UniProt P61964,1.005 ± 0.0047,1.019 ± 0.0075
UniProt P61129,1.02 ± 0.027,1.08 ± 0.046
SSBP1 (UniProt Q04837),0.995 ± 0.027,1.02 ± 0.062
UniProt P61764 and related entries,1 ± 0.023,0.981 ± 0.033
AP1S2 (UniProt P56377),1.01 ± 0.049,1.024 ± 0.0088

# Quoted at random: 5 records from the list
Target,NP40-soluble protein abundance (concentration: 0.1mM),NP40-soluble protein abundance (concentration: 0.5mM)
UniProt Q01804 and related entries,0.989 ± 0.049,0.99 ± 0.025
UniProt P62316,1 ± 0.038,1.07 ± 0.097
UniProt P61026,0.948 ± 0.047,0.988 ± 0.017
UniProt P61024 and related entries,0.986 ± 0.031,1 ± 0.046
RING1 (UniProt Q06587),1.01 ± 0.065,1.04 ± 0.057

# Reference: the supplement of paper PMC6411743
